From patent publication US20160280750A1
No constants are given. Whether binding was seen depends on the method and setting. A result given as binding can be weak or reduced; the word gives no strength.

Molecular target: HLA-B*2705 (human)
Assay: REVEAL in vitro MHC-peptide binding assay on HLA-B2705

**Q.** KRFNALQYL [Peptide I.D. 1 …] was tested. Which binding did it give?
**A.** Its binding is “binds”.
